Test results: PubChem BioAssay AID489008 (National Center for Advancing Translational Sciences (NCATS), 2010)
The inconclusive results got no clear call from the source; some entries with a clear call stand among them for comparison. Potencies beside an inconclusive call are fits to weak or partial responses and may not hold up. Active and inactive are the calls of the source. Calls follow the shape of the dose curve; as a rule, active = well fitted inhibition curve with a large enough effect; inconclusive = small, poorly fitted or top-dose-only effect; inactive = flat fitted curve, though single readings scatter.

By UniProt entry, the sequences of proteins in these tests, tags left out. Residues count along the entry.
UniProt P02791, 2-175 limits assumed: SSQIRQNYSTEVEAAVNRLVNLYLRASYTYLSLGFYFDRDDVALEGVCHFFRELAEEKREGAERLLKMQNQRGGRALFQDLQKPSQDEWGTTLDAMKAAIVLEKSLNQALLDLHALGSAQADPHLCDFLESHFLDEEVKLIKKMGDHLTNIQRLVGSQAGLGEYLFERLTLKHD

Molecular target: Ferritin light chain (Equus caballus) (UniProt P02791)
Assay: Confirmation Assay for Identification of Novel General Anesthetics; also: nearly all actives have a fitted effect of over 40% in size
Conditions: apoferritin 1-aminoanthracene fluorescence displacement
Summary of the method: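 Competitive displacement of profluorescent 1-aminoanthracene from 10 uM horse-spleen apoferritin in 50% saturated 1-AMA/PBS; 10 min RT, fluorescence Ex 380/Em 535. Normalized to free 1-AMA and complex; four-parameter Hill fit.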
Potency is read from the fitted curve at half-maximal effect.

Potency, inconclusive:
O=C(NCc1ccccc1)c1csc2c1CCCCC2 44.7 µM [inhibitor, partial curve]
O=S(=O)(c1ccc2ccccc2c1)N1CCCOC1 35.5 µM [inhibitor, partial curve]
CN(C)c1ccc(C(=S)N2CCCCC2)cc1Br 35.5 µM [inhibitor, partial curve]
O=[N+]([O-])c1ccccc1-c1ccc(C(=S)N2CCCC2)o1 39.8 µM [inhibitor, partial curve]
CC(C)(C)C(=O)Nc1nnc(SCc2ccc(F)cc2)s1 14.1 µM [inhibitor, partial curve]
CC(C)COP(=O)(OCC(C)C)C(O)c1ccccc1F (configuration not stated) 20 µM [inhibitor, partial curve]
CC1CC(C)CN(C(=O)COC(=O)c2cc3ccccc3cc2O)C1 (configuration not stated) 39.8 µM [inhibitor, partial curve]
CC(C)=CCOc1ccc2ccc(=O)oc2c1 14.1 µM [inhibitor, partial curve]
Cc1cccc(NC(=O)N(C)Cc2cccs2)c1 17.8 µM [inhibitor, partial curve]

3 structures out of the list, sorted by length of the SMILES, descending.
Potency, inconclusive:
CC(C)(C)C(=O)Nc1nnc(SCc2ccc(F)cc2)s1 14.1 µM [inhibitor, partial curve]
O=S(=O)(c1ccc2ccccc2c1)N1CCCOC1 35.5 µM [inhibitor, partial curve]
O=C(NCc1ccccc1)c1csc2c1CCCCC2 44.7 µM [inhibitor, partial curve]

Following part.

Potency, active:
Cc1ccc(CC(=O)OCC(=O)NC2CCCC(C)C2C)cc1C (configuration not stated) 28.2 µM
O=C(CSc1ccccn1)N1CCc2ccccc21 8.91 µM
Cc1cc(NS(=O)(=O)c2ccccc2)cc(Cl)c1O 11.2 µM
